Test results published in the supplement of paper PMC9254222.
Counter-ions that a name gives are not always drawn. In all, about 1,100 compounds were measured (“Wnt reporter firefly/Renilla luciferase ratio relative to plate median”: median about 1.1, highest 2% from about 1.6 on). This is a selection; strong and weak results do not stand in their true shares.

Test system: HEK293T (UBE3A T485A transfected, BAR Wnt reporter)
Test: Wnt reporter firefly/Renilla luciferase ratio relative to plate median (fold (linear ratio)); higher = more Wnt/beta-catenin reporter activation
Settings: 24 h
Procedure, shortened: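 Chemicals were robotically dosed at 0.01–100 uM for 24 h onto HEK293T cells, starting four hours after transfection with a BAR firefly luciferase Wnt reporter, TK-Renilla and an expression plasmid. The cells had been plated at 4500 cells/well in DMEM with 10% FBS at 37°C and 5% CO2. Following a Dual-Glo luciferase readout, the firefly/Renilla ratio served as the Wnt activity measure and raw Renilla as the cell health measure, both median-centred on each plate. Each value is the mean of four biological replicates.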

SMILES | Wnt reporter firefly/Renilla luciferase ratio (concentration: 0.1 uM) | Wnt reporter firefly/Renilla luciferase ratio (concentration: 1 uM) | Wnt reporter firefly/Renilla luciferase ratio (concentration: 10 uM) | Wnt reporter firefly/Renilla luciferase ratio (concentration: 100 uM) | Wnt reporter firefly/Renilla luciferase ratio (concentration: 0.01 uM)
CC[C@H](C)C(=O)O[C@H]1C[C@@H](C)C=C2C=C[C@H](C)[C@H](CC[C@@H]3C[C@@H](O)CC(=O)O3)[C@H]21 [Lovastatin] | 1.04 | 1.21 | 1.03 | 0.64 | –
CC(C)(C)CC(C)(C)c1ccc(O)c(-n2nc3ccccc3n2)c1 [Octrizole] | 1.01 | 1.02 | 1.08 | 1.29 | –
CCCCOCCOCCOCc1cc2c(cc1CCC)OCO2 [Piperonyl butoxide] | 1.02 | 1.17 | 1.2 | 1.23 | 0.694
COc1cc(-c2nc(NC(=O)c3cc4cc(C)cc(C)c4n3CC(=O)O)sc2CCC2CCCCC2)c(OC)cc1Cl.O=C(O)C(F)(F)F | 1.1 | 0.944 | 0.988 | 1.4 | –
CC(O)CO (stereo not drawn) [1,2-Propylene glycol] | 0.815 | 0.913 | 0.875 | 1.23 | –
Sc1nc2ccccc2s1 [2-Mercaptobenzothiazole] | – | 1.62 | – | 1.69 | –
Cc1cc(SC2=C(O)C[C@@](CCc3ccc(N)cc3)(C(C)C)OC2=O)c(C(C)(C)C)cc1CO | 1.12 | 0.9 | 1.24 | 0.341 | –
Oc1ccc2ccccc2c1 [2-Naphthalenol] | 1.3 | 1.15 | 1.31 | 0.613 | –
CCc1c2c(nc3ccc(OC(=O)N4CCC(N5CCCCC5)CC4)cc13)-c1cc3c(c(=O)n1C2)COC(=O)C3(O)CC (stereo not drawn) [Irinotecan] | 1.6 | 1.31 | 0.401 | 0.407 | 1.4
Oc1ccc(C2COc3cc(O)ccc3C2)cc1 (stereo not drawn) [Equol] | 1.08 | 1.22 | 1.32 | 0.113 | 1.17
C=CCOC(Cn1ccnc1)c1ccc(Cl)cc1Cl (stereo not drawn) [Imazalil] | 1.04 | 0.994 | 0.916 | 0.377 | 1.1
CC1=C(/C=C/C(C)=C/C=C/C(C)=C/C(=O)O)C(C)(C)CCC1 [all-trans-Retinoic acid] | 0.99 | 0.918 | 1.36 | 0.4 | –
Cc1cc(Nc2cc(N3CCN(C)CC3)nc(Sc3ccc(NC(=O)C4CC4)cc3)n2)n[nH]1 | 0.687 | 0.649 | 0.517 | – | 1.37
O=C(O)c1ccccc1-n1cc(C(=O)O)c(=O)c2cc(Nc3c(F)cc(F)cc3Cl)c(Cl)cc21 | 1.24 | 1.08 | 1.21 | 1.13 | –
O=c1[nH]cnc2c1ncn2[C@H]1CC[C@@H](CO)O1 [2',3'-Dideoxyinosine] | 1.07 | 1 | 0.879 | 1.08 | –
O=c1[nH]cc(F)c(=O)[nH]1 [5-Fluorouracil] | 1.22 | 1.05 | 0.202 | 0.277 | –
COC(=O)CC(=O)OC [Dimethyl malonate] | 1.02 | 1.16 | 0.907 | 1.28 | –
COc1ccc(OC(F)(F)F)cc1CN[C@H]1CCCN[C@H]1c1ccccc1 | 1.18 | 1.06 | 0.514 | – | –
C/C=C/c1ccc(OC)cc1 [(E)-Anethole] | 1.22 | 0.971 | 1.15 | 1.58 | –
COC(=O)c1ccccc1C(=O)O [Monomethyl phthalate] | 1.05 | 1.09 | 1.11 | 1.4 | 1.05
C=CCc1ccc(OC)c(OC)c1 [Methyleugenol] | 0.944 | 1.02 | 0.899 | 0.99 | –
Cc1nn(C)c(Oc2ccccc2)c1C=NOCc1ccc(C(=O)OC(C)(C)C)cc1 [Fenpyroximate (Z,E)] | 0.924 | 0.351 | 0.219 | 0.404 | 0.912

SMILES | Wnt reporter firefly/Renilla luciferase ratio (concentration: 0.1 uM) | Wnt reporter firefly/Renilla luciferase ratio (concentration: 1 uM) | Wnt reporter firefly/Renilla luciferase ratio (concentration: 10 uM) | Wnt reporter firefly/Renilla luciferase ratio (concentration: 100 uM) | Wnt reporter firefly/Renilla luciferase ratio (concentration: 0.01 uM)
CC12CCC3c4ccc(O)cc4CCC3C1CCC2O (stereo not drawn) [17-beta-estradiol] | 0.945 | 0.976 | 1.05 | 0.278 | 0.929
CCCCCCCCCCCO [1-Undecanol] | 0.805 | 0.79 | 1.13 | 1.1 | –
CCOC(=O)c1ccc([C@H]2CC[C@H](NC[C@H](O)COc3ccc(O)c(NS(C)(=O)=O)c3)CC2)cc1.Cl | 1.32 | 0.943 | 0.776 | – | –
CC1=CC(=O)CC(C)(C)C1 [Isophorone] | 0.978 | 0.91 | 1.48 | 1.46 | –
CCCCOC(=O)c1ccc(O)cc1 [Butylparaben] | 0.891 | 1.22 | 1.01 | 0.18 | –
NNC(=O)c1ccncc1 [Isoniazid] | 0.84 | 0.861 | 1.24 | 1.17 | –
CCC(C)OC(=O)N1CCCCC1CCO (stereo not drawn) [Icaridin] | 0.907 | 1.04 | 1.15 | 1.22 | 1.07
CC(=O)OCCOCCOCCOC(C)=O [Triethylene glycol diacetate] | 1.25 | 1.16 | 1.07 | 1.26 | –
Cc1nc(C)nc(N2C[C@@H](C)N(c3ccnc([C@@H](C)O)n3)[C@@H](C)C2)n1 | 1.16 | 1.13 | 1.09 | 0.602 | –
CCN(CC)C(=O)c1cccc(C)c1 | 1.26 | 1.04 | 1.19 | 1.13 | 1.39
CCCCCCCCCC[N+](C)(C)[O-] [N,N-Dimethyldecylamine oxide] | 1.26 | 1.13 | 1.56 | 0.836 | –
CC(C)CC(C=O)NC(=O)C(CC(C)C)NC(=O)C(CC(C)C)NC(=O)OCc1ccccc1 (stereo not drawn) | 0.85 | 2.61 | – | – | 0.993
O=S(=O)([O-])c1ccc(/N=N/c2c(O)ccc3cc(S(=O)(=O)[O-])ccc23)cc1.[Na+].[Na+] [FD&C Yellow 6] | – | – | – | 2.05 | –
CC(=O)[C@H]1CC[C@H]2[C@@H]3CCC4=CC(=O)CC[C@]4(C)[C@H]3CC[C@]12C [Progesterone] | 1.1 | 1.18 | 0.781 | 0.322 | –
CN1C(=O)N(c2ccccc2Br)Cc2cnc(Nc3ccc4c(c3)OCC(CO)O4)nc21 (stereo not drawn) | 0.694 | 0.73 | 1.19 | – | –
COC(=O)CCCC(=O)OC [Dimethyl glutarate] | 0.941 | 0.895 | 1.36 | 1.05 | –
c1ccc2[nH]nnc2c1 [1,2,3-Benzotriazole] | 1.1 | 0.881 | 1.01 | 1.32 | –
Cc1ccc(S(=O)(=O)NC(=O)NN2CCCCCC2)cc1 [Tolazamide] | 1.07 | 1.24 | 1.09 | 1.43 | –
CCOC(=O)CC(O)(CC(=O)OCC)C(=O)OCC [Triethyl citrate] | 1.15 | 1.2 | 1.07 | 1.33 | –
COC(=O)c1ccc(C(=O)OC)cc1 [Dimethyl terephthalate] | 1.12 | 0.902 | 1.37 | 1.4 | –
C[C@]12C=CC(=O)C=C1CC[C@@H]1[C@@H]2C(=O)C[C@@]2(C)[C@H]1CC[C@]2(O)C(=O)CO [Prednisone] | 0.89 | 0.741 | 0.763 | 0.685 | –
CCCC[C@H]1CN(CC2CCOCC2)C(=O)OC12CCN(C1(C)CCN(C(=O)c3c(C)ncnc3C)CC1)CC2 | 1.19 | 1.12 | 1.1 | 1.55 | –

Random excerpt: 3 compounds from above, in no set order.
SMILES | Wnt reporter firefly/Renilla luciferase ratio (concentration: 0.1 uM) | Wnt reporter firefly/Renilla luciferase ratio (concentration: 1 uM) | Wnt reporter firefly/Renilla luciferase ratio (concentration: 10 uM) | Wnt reporter firefly/Renilla luciferase ratio (concentration: 100 uM) | Wnt reporter firefly/Renilla luciferase ratio (concentration: 0.01 uM)
CC(O)CO (stereo not drawn) [1,2-Propylene glycol] | 0.815 | 0.913 | 0.875 | 1.23 | –
CCc1c2c(nc3ccc(OC(=O)N4CCC(N5CCCCC5)CC4)cc13)-c1cc3c(c(=O)n1C2)COC(=O)C3(O)CC (stereo not drawn) [Irinotecan] | 1.6 | 1.31 | 0.401 | 0.407 | 1.4
CCCCCCCCCCCO [1-Undecanol] | 0.805 | 0.79 | 1.13 | 1.1 | –

Further entries.

SMILES | Wnt reporter firefly/Renilla luciferase ratio (concentration: 0.1 uM) | Wnt reporter firefly/Renilla luciferase ratio (concentration: 1 uM) | Wnt reporter firefly/Renilla luciferase ratio (concentration: 10 uM) | Wnt reporter firefly/Renilla luciferase ratio (concentration: 100 uM) | Wnt reporter firefly/Renilla luciferase ratio (concentration: 0.01 uM)
Cc1ccc(C)c(O)c1C [2,3,6-Trimethylphenol] | 1.4 | 1.11 | 1.21 | 1.58 | –
CCCCCC(=O)O [Hexanoic acid] | 1.02 | 0.926 | 1.05 | 1.27 | –
CCCC(CCC)C(=O)O [Valproic acid] | 0.995 | 1.01 | 1.14 | 1.69 | 1.2
O=C(O)CCCCC(=O)O [Hexanedioic acid] | 1.24 | 1.34 | 1.58 | 1.41 | –
OC12N=C(c3ccccc3)SC1Cc1cc(Cl)ccc12 (stereo not drawn) | 1.17 | 1.22 | 1.11 | 0.457 | –
C[C@]12CC[C@@H]3c4ccc(O)cc4C[C@@H](CCCCCCCCCS(=O)CCCC(F)(F)C(F)(F)F)[C@H]3[C@@H]1CC[C@@H]2O (stereo partly drawn) [Fulvestrant] | 1.27 | 0.905 | 1.14 | 0.933 | –
CCNc1nc(N)nc(Cl)n1 [Deisopropylatrazine] | 0.972 | 0.965 | 1.5 | 0.426 | 1.05
C=CN1CCCC1=O [N-Vinyl-2-pyrrolidone] | 1.12 | 1.18 | 1.21 | 1.04 | –
CCCCOC(=O)CCCCCCCCC(=O)OCCCC [Dibutyl decanedioate] | 0.951 | 0.896 | 0.802 | 2.33 | –
OCC(O)CO [Glycerol] | 1.1 | 0.905 | 1.05 | 1.04 | –
CCCCOC(=O)[C@@H](C)Oc1ccc(Oc2ccc(C(F)(F)F)cn2)cc1 [Fluazifop-P-butyl] | – | – | – | 1.67 | –
Cc1ccc(C(C)C)c(O)c1 [Thymol] | 0.988 | 1.09 | 1.29 | 1.08 | –
NC(=O)Cn1c(=O)cc(CCN2CCN(c3nccc4sccc34)CC2)c2ccc(F)cc21 [Trelanserin] | 1.25 | 1.08 | 1.23 | 1.07 | –
CCn1nc(C)c2c1C(=O)NCC(c1ccc(O)cc1)=N2 | 1.05 | 0.921 | 1.11 | 0.603 | –
O=C1OC(c2ccc(O)cc2)(c2ccc(O)cc2)c2ccccc21 [Phenolphthalein] | 1.15 | 0.934 | 1.19 | – | –
CCN(CC)C(=S)SSC(=S)N(CC)CC [Disulfiram] | 1.06 | 0.747 | 0.832 | 0.235 | –
COc1cc(S(=O)(=O)[O-])c(C)cc1/N=N/c1c(O)ccc2cc(S(=O)(=O)[O-])ccc12.[Na+].[Na+] | 1.19 | 1 | 1.45 | 2.21 | –
NC=O [Formamide] | 1.2 | 1.2 | 1.16 | 1.09 | –
OCc1ccccc1 [Benzyl alcohol] | 1.29 | 0.923 | 1.03 | 1.49 | –
O=N[O-].[Na+] [Sodium nitrite] | 1.13 | 0.943 | 1.4 | 1.29 | –
Nc1ccc(Nc2ccccc2)cc1 [N-Phenyl-1,4-benzenediamine] | 1.37 | 0.895 | 0.885 | 0.13 | –
